Data taken from patent publication US20260209202A1, “N-METHYL-4-(QUINOLIN-2-YL)PYRIDIN-2-AMINE COMPOUNDS” (Abbvie Inc., priority 2023, published 2026).
For at least one compound, name, drawing or mass did not settle the structure.

Test system: tau aggregates in globus pallidus and putamen of PSP brains
Test: In vitro autoradiography of radioligand binding to sections of globus pallidus and putamen from PSP and normal brains
Parameters: species or system human
Text: Brain Tissue. Flash-frozen (FF) tissue blocks, and, for some cases, the corresponding mirrored, formalin-fixed, paraffin-embedded (FFPE) tissue blocks from the globus pallidus and putamen of normal or Progressive Supranuclear Palsy (PSP) brains were purchased from Tissue Solutions Ltd (TS; Glasgow, UK). Both FF and FFPE tissue blocks were used to assess the distribution pattern of [3H] Compound (I) and [3H] Compound (II) binding to normal and PSP brain samples by means of in vitro autoradiography. Only FF tissue blocks were used to determine the affinity of [^3H] Compound (I) and [^3H] Compound (II) for PSP brain by means of in vitro autoradiography. […]
In vitro autoradiography. […] The plates were read using a Phosphoimager Typhoon™ FLA-70001P (GE Healthcare, Chicago, IL USA). […]
Quantitative analysis of the in vitro autoradiography results. Quantitative analysis was performed by computer assisted micro-densitometry (MCD; MCID basic, Interfocus, Devon, UK). […] Identification of the areas of interest was determined by reference to the Atlas of the Human Brain (Mai et al., 2015, Elsevier, ISBN:9780128028018). […]

## [3H]C([3H])([3H])Nc1cc(-c2ccc3cc(N4CC(O)(CF)C4)ccc3n2)ccn1 [[^3H] Compound (II), 3-(fluoromethyl)-1-(2-{2-[(^3H3)methylamino]pyridin-4-yl}quinolin-6-yl)azetidin-3-ol]
3 nM radioligand, grey matter of FF globus pallidus and putamen sections
  amount of radioligand bound to the tissue, PSP brains versus normal brains: 2.2 times
Globus pallidus and putamen
  selectivity for tau aggregates in PSP affected brain tissue as compared to healthy brain tissue: high degree of selectivity
